Reference: PubChem BioAssay AID504444 (National Center for Advancing Translational Sciences (NCATS), 2011)
Screen size: about 360,000 compounds; about 7,500 (2.1%) were called active. Inconclusive results, whose numbers are uncertain, are shown with a selection of clear calls. Calls come from the whole dose curve; as a rule, active = well fitted inhibition curve with a large enough effect; inconclusive = small, poorly fitted or top-dose-only effect, or effect the other way; inactive = flat fitted curve, though single readings scatter. Where the call is inconclusive, the potency comes from a doubtful curve fit.

Experiment: Nrf2 qHTS screen for inhibitors; note: nearly all actives have a fitted effect of over 60% in size
Details: A549 ARE-Fluc reporter, luciferase luminescence, 18-24 h; series mostly up to 46 µM
In short: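 Nrf2 activity is the BugLite luminescence, read 15 min after reagent at room temperature, following CellTiter-Fluor cytotoxicity readout (30 min, 37C). Compound titrations were applied for 18-24 h to 5000 A549 ARE_Fluc cells/well in 5% FBS OPTI-MEM.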
Potency is the fitted concentration of half-maximal effect.

Question: For `O=C1N/C(=C/c2ccc(N3CCOCC3)o2)C(=O)N1c1ccccc1`, which Potency is on record?
Answer: inactive

Question: Which Potency does the source give for `Cc1ccccc1OCCSc1nc2ccc(NC(=O)c3cccs3)cc2s1` here?
Answer: inconclusive: 16.4 µM [falling, partial curve]

Question: For `COc1ccc(NC(=O)COc2ccc3c(C)cc(=O)oc3c2)cc1S(=O)(=O)N1CCCCC1`, which Potency is on record?
Answer: inconclusive: 2.59 µM [falling, full curve]

Question: For `Cn1c(=O)cc(SCC(=O)N2CCN(c3ccccc3F)CC2)c2ccc(Cl)cc21`, which Potency is on record?
Answer: inconclusive: 18.4 µM [falling, single point]

Question: With `CCn1c(NCc2ccc3c(c2)OCO3)nc2ccccc21` as the molecule, how does the Potency read?
Answer: inconclusive: 29.1 µM [activator, single point]

Question: Which Potency does the source give for `CC(C)CCN1CCN(Cc2ccon2)CC1CCO` (configuration not stated) here?
Answer: inconclusive: 18.4 µM [activator, partial curve, poor fit]

Question: With `CC1CC1C(=O)Nc1nc2ccc(Cl)cc2s1` (configuration not stated) as the molecule, how does the Potency read?
Answer: inconclusive: 23.1 µM [activator, single point]

Question: Which Potency does the source give for `CC(C)(C)c1cc(-c2nc(N)nc(N)n2)c(O)c(C(C)(C)C)c1` here?
Answer: inconclusive: 29.1 µM [falling, single point]

Question: Which Potency does the source give for `Cc1cc(C)c[n+](CC(=O)c2cc3ccccc3oc2=O)c1` here?
Answer: inactive

Question: Which Potency does the source give for `CCn1c([N+](=O)[O-])nc2c1c(=O)[nH]c(=O)n2C` here?
Answer: inactive

Question: Which Potency does the source give for `Cc1ccc(NC(=O)/C=C2\NC(=O)CS2)cc1` here?
Answer: inconclusive: 16.4 µM [activator, partial curve]

Question: Which Potency does the source give for `CCCc1nc2ccccc2c(C(=O)OC(C)C(=O)NCc2ccc3c(c2)OCO3)c1CC` (configuration not stated) here?
Answer: inconclusive: 16.4 µM [falling, single point]

Question: For `C=CCC[C@H](Cc1ccc(F)cc1)C(=O)OC[C@@H](C)NC(=O)[C@@H](CC=C)CC(=O)N[C@H](CO)Cc1ccccc1`, which Potency is on record?
Answer: active: 20.6 µM

Question: With `COc1ccc2c(c1)CC/C2=N\NC(=O)c1ccccc1` as the molecule, how does the Potency read?
Answer: inconclusive: 25.9 µM [activator, single point]

Question: With `COc1ccccc1NC(=O)Cn1c(=O)n(CC(=O)NCc2ccccc2Cl)c(=O)c2sccc21` as the molecule, how does the Potency read?
Answer: inactive

Question: With `COc1ccc(C(=O)Oc2c(Sc3ccc(C)cc3)c(C)nn2C(C)(C)C)cc1OC` as the molecule, how does the Potency read?
Answer: inconclusive: 0.092 µM [falling, full curve, poor fit]

Question: For `Cn1c(C2CC(=O)N(Cc3ccccc3)C2)nc2ccccc21` (configuration not stated), which Potency is on record?
Answer: inconclusive: 0.058 µM [falling, partial curve, poor fit]

Question: Which Potency does the source give for `COCCCn1c(-c2ccc(S(=O)(=O)N3CCOCC3)cc2)csc1=Nc1ccccc1` here?
Answer: active: 16.4 µM

Question: With `CC1(c2ccc(Cl)cc2)CC(C)(C)N(C(=O)c2cccc(F)c2)c2ccccc21` (configuration not stated) as the molecule, how does the Potency read?
Answer: inconclusive: 18.4 µM [falling, single point]

Question: Which Potency does the source give for `CC1CC1C(=O)Nc1ccc(-c2ccccc2)cc1` (configuration not stated) here?
Answer: inconclusive: 16.4 µM [activator, partial curve]

Question: For `COc1ccc(/C=C2\CCn3c2nc2cc(C(=O)O)ccc2c3=O)cc1`, which Potency is on record?
Answer: inconclusive: 16.4 µM [falling, partial curve, poor fit]

Question: For `O=C(/C=C/c1ccccc1)NC(NC(=S)Nc1cccc(Cl)c1)C(Cl)(Cl)Cl` (configuration not stated), which Potency is on record?
Answer: active: 7.31 µM

Question: With `Cc1ccc(S(=O)(=O)N2CCOCC2)cc1C(=O)N1CCCCCC1` as the molecule, how does the Potency read?
Answer: inactive

Question: For `O=C(CN(C(=O)CCC(=O)Nc1nccs1)c1ccc2c(c1)OCO2)NCc1ccc(F)cc1`, which Potency is on record?
Answer: inconclusive: 23.1 µM [falling, single point]

Question: With `CCN(CC)S(=O)(=O)c1ccc(Oc2ccc(S(=O)(=O)N(CC)CC)cc2)cc1` as the molecule, how does the Potency read?
Answer: inconclusive: 2.31 µM [falling, full curve, poor fit]

Question: With `O=C(c1ccc(Cl)cc1)N1CCCCC(Sc2nnc(-c3ccc4c(c3)OCO4)o2)C1=O` (configuration not stated) as the molecule, how does the Potency read?
Answer: inconclusive: 9.2 µM [falling, partial curve, poor fit]

Question: With `Nc1nnnn1/N=C/C(Br)=C/c1ccccc1` as the molecule, how does the Potency read?
Answer: inactive

Question: With `COc1ccc(NC(=O)COC(=O)c2c3c(nc4ccccc24)CCCC3)cc1` as the molecule, how does the Potency read?
Answer: inconclusive: 18.4 µM [falling, single point]

Question: With `COC(=O)c1c(C)oc2ccc(N(C(=O)c3ccncc3)S(=O)(=O)c3cc(C)ccc3C)cc12` as the molecule, how does the Potency read?
Answer: inconclusive: 16.4 µM [falling, single point]

Question: With `O=C1c2cccc3cccc(c23)C(=O)N1Nc1ccccc1` as the molecule, how does the Potency read?
Answer: inconclusive: 16.4 µM [falling, partial curve, poor fit]

Question: With `Cc1ccc(C(=O)Nc2ccccc2)cc1S(=O)(=O)Nc1ccccc1` as the molecule, how does the Potency read?
Answer: inconclusive: 29.1 µM [falling, partial curve, poor fit]

Question: Which Potency does the source give for `N#Cc1c(F)cccc1N1CCN(Cc2ccc3c(c2)OCO3)CC1` here?
Answer: inconclusive: 32.6 µM [falling, single point]

Question: For `CS(=O)(=O)N1CCC(C(=O)Nc2ccc(Oc3ccccc3)cc2)CC1`, which Potency is on record?
Answer: inconclusive: 9.2 µM [falling, partial curve, poor fit]

Question: For `CCOC(=O)c1c(NC(=O)CSc2nnc(CNc3ccc(F)cc3)o2)sc(C)c1C`, which Potency is on record?
Answer: inconclusive: 25.9 µM [falling, partial curve, poor fit]

Question: Which Potency does the source give for `CS(=O)(=O)N1CCN(c2cnn(-c3ccccc3)c(=O)c2Cl)CC1` here?
Answer: inconclusive: 16.4 µM [activator, partial curve, poor fit]

Question: For `Cc1cnc(C(=O)Nc2ccc3c(c2)CCC3)cn1`, which Potency is on record?
Answer: inconclusive: 0.58 µM [activator, full curve]

Question: For `CCCn1cc(S(=O)(=O)c2ccc(Cl)cc2)c(=O)c2cc(OC)ccc21`, which Potency is on record?
Answer: inactive

Question: Which Potency does the source give for `CC(=O)c1ccc(NCCC(=O)c2ccccc2)cc1` here?
Answer: inconclusive: 23.1 µM [activator, single point]

Question: With `Cc1ccc(OC(=O)CSc2nnc(-c3ccc4c(c3)OCO4)o2)cc1` as the molecule, how does the Potency read?
Answer: inconclusive: 0.92 µM [activator, full curve]

Question: With `Cc1[nH]nc(SCC(=O)NC2CCCCC2)c1[N+](=O)[O-]` as the molecule, how does the Potency read?
Answer: inactive

Question: For `C=CCNC(=O)c1ccccc1NC(=O)c1ccc(Cl)c(S(=O)(=O)Nc2cccc(C)c2C)c1`, which Potency is on record?
Answer: active: 9.2 µM

Question: Which Potency does the source give for `CCN1/C(=C2/SC(=S)NC2=O)Sc2ccccc21` here?
Answer: inconclusive: 0.517 µM [falling, full curve]
